Results: paper PMC5226551
These are yes or no findings as the source states them, for the method shown. Binding seen in cells or lysates may run through a third protein. Some entries that bind do so weakly or less than the wild type.

Chains of the proteins cited; added tags and fusions are not shown.
UniProt P35222: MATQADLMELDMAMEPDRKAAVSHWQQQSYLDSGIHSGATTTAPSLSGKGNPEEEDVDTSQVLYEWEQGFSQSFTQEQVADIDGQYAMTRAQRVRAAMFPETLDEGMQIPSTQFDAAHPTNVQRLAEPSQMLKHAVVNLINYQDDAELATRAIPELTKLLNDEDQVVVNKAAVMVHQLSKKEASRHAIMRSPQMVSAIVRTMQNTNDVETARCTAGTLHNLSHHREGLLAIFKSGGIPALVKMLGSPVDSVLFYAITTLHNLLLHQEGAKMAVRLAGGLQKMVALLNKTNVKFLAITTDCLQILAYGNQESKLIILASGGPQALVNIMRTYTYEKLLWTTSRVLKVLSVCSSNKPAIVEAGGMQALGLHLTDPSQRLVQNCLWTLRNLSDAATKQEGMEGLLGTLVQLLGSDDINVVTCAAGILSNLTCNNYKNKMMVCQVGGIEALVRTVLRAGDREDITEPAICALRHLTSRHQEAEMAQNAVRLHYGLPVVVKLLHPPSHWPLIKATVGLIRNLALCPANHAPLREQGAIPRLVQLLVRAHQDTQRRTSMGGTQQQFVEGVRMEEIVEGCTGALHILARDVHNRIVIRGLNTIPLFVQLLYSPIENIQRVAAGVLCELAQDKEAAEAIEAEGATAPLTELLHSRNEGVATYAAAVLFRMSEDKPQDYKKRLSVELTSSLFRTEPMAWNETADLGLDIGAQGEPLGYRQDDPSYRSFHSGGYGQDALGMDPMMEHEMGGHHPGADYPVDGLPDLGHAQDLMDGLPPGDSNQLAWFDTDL

Molecular target: T1, WNT1 inducible signaling pathway protein 1 (WISP1) (human (endogenous in LOVO and RKO)) (UniProt O95388)
T1 sequence: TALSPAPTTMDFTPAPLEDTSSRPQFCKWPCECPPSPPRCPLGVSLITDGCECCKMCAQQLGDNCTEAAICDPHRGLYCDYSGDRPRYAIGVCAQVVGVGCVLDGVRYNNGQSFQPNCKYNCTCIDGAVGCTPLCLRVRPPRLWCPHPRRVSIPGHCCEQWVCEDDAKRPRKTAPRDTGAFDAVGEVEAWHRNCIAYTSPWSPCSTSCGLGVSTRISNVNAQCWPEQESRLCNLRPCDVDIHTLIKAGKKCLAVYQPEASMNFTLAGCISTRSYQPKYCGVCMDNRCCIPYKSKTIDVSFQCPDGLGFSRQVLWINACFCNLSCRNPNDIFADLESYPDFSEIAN
Experiment: co-IP; in LOVO and RKO cells; input and IP samples blotted with WISP1 and β-catenin antibodies; normal rabbit/mouse IgG listed; which protein was precipitated is not told; procedure as in ref. 45

β-catenin (from UniProt P35222 1-781)
binding: binds
